Source: publication PMC8642408
These are yes or no findings as the source states them, for the method shown. Binding seen in cells or lysates may run through a third protein. Some results given as binding are weak or reduced against the parent protein; the word gives no strength. Tags and fused reporters may be left off the sequences shown. Each block holds one molecule with its values, some of them ahead of it.

The chains behind the UniProt entries cited, without tags or fusion partners.
UniProt Q9V9J3: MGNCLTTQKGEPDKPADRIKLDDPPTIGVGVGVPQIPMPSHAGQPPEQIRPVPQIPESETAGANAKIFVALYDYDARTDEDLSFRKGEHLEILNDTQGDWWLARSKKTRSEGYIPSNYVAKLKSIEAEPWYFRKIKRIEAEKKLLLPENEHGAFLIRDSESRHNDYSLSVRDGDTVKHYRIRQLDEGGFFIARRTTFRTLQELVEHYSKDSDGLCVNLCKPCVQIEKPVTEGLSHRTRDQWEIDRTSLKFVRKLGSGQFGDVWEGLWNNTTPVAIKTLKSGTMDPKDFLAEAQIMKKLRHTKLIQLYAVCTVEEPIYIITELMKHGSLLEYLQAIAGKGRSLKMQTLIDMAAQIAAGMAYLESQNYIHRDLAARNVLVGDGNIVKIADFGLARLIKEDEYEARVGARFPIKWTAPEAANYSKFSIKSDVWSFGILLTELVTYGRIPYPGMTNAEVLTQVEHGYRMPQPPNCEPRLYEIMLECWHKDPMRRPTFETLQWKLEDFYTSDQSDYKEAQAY

Tests used:
Myc-Wts (Drosophila) [1] = molecular target: T1, Myc-Wts (Drosophila) (UniProt Q9VA38); assay: co-IP; Drosophila S2 cells transfected with tagged constructs; harvested 48 h after transfection; IP with anti-Myc or anti-HA, then immunoblot
T1 sequence: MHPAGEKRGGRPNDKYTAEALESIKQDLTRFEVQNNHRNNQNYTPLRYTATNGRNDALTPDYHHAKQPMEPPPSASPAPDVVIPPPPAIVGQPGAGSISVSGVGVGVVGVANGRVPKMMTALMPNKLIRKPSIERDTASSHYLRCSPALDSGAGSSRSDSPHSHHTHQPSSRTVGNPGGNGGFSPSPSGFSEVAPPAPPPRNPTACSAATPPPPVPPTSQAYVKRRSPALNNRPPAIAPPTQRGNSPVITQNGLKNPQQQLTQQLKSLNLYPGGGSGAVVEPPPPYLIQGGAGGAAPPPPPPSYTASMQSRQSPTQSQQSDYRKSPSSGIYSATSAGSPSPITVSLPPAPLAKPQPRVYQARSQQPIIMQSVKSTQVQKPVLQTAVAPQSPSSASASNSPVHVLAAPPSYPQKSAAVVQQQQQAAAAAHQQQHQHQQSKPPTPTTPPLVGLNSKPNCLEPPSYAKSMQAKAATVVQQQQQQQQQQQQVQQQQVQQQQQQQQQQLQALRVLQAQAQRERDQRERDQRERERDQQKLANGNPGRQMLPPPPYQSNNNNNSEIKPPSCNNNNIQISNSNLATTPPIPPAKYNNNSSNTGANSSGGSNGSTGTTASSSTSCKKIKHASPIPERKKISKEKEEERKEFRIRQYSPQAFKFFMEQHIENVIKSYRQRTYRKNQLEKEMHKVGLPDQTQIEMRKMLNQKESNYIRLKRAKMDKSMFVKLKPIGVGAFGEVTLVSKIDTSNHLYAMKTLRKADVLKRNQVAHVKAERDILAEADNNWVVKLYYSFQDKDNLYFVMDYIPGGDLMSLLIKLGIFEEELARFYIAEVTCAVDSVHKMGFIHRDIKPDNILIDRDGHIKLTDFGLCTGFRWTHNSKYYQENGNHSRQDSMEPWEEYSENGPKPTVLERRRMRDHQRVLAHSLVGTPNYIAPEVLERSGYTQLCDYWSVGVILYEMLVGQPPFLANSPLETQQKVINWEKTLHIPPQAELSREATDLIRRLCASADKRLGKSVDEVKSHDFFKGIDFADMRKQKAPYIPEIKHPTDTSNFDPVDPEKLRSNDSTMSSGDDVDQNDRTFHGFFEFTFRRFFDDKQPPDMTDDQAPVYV

Myc-Wts (Drosophila) [2] = molecular target: T1, Myc-Wts (Drosophila); assay: co-IP; Drosophila S2 cells, with or without co-expressed Src42A; which protein was precipitated not given
HA-Src42A (Drosophila) = HA-Src42A (Drosophila) (UniProt Q9V9J3); assay: co-IP; Drosophila S2 cells transfected with tagged constructs; harvested 48 h after transfection; IP with anti-Myc or anti-HA, then immunoblot

binding (Myc-Wts (Drosophila) [1]): binds
Molecule: HA-Src42A (from UniProt Q9V9J3 1-517) (enzyme)

binding (Myc-Wts (Drosophila) [2]): binds
B1: Mob as a tumor suppressor (Mats) (protein, UniProt Q95RA8 1-219)
chain: MDFLFGSRSSKTFKPKKNIPEGTHQYDLMKHAAATLGSGNLRNAVALPDGEDLNEWVAVNTVDFFNQINMLYGTITEFCTEETCGIMSAGPKYEYHWADGLTVKKPIKCSAPKYIDYLMTWVQDQLDDETLFPSKIGVPFPKNFHSSAKTILKRLFRVYAHIYHQHFTEVVTLGEEAHLNTSFKHFIFFVQEFNLIERRELAPLQELIDKLTAKDERQI

binding (HA-Src42A (Drosophila)): binds
B2: Myc-Wts (enzyme, UniProt Q9VA38 1-1105)
chain: T1 sequence
